Laboratory results as given in PubChem BioAssay AID1259354 (Paczesny and Yang Labs, IUPUI and University of Michigan, 2018).
The whole screen tested about 78,000 compounds, of which about 1,800 (2.3%) were called active. Inconclusive results, whose numbers are uncertain, are shown with a selection of clear calls. Rule as the data show it: active = inhibition above about 30%; inconclusive = mostly about 10% to 28%; inactive = weaker than that.

Amino acid sequences for entries named in this document (tags omitted). A change or cut given only in a name is not applied to a line headed by its entry.
UniProt Q01638: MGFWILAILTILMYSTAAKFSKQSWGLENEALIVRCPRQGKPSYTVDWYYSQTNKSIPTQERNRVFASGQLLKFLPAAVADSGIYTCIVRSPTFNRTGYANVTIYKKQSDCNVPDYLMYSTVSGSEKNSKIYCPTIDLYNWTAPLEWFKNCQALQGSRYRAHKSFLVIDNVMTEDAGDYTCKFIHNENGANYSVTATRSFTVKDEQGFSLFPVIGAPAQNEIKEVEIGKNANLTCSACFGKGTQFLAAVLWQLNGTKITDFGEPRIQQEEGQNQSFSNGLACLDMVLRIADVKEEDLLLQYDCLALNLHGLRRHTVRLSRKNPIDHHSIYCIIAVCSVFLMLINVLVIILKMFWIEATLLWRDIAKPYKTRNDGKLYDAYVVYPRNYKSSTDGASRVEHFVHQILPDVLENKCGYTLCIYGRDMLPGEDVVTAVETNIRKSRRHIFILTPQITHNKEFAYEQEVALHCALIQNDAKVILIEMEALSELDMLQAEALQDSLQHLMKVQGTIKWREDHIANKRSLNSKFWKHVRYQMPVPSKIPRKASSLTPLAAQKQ

The compounds below were run against Interleukin-1 receptor-like 1 (Homo sapiens) (UniProt Q01638) (assay: blocks human ST2 binding to IL-33, primary screen, biochemical, AlphaLISA (AID 1259354)). Settings: AlphaLISA ST2-Fc/biotin-IL-33 interaction, 1 h; at 17 µM, stronger effect = higher value.
With `C[C@H](C(=O)N1CCOCC1)C1CC[C@@]2(C)Cc3sc(-c4ccccc4)nc3[C@@H](C)[C@@H]2[C@H]1O` (stereo partly drawn) the inhibition was inconclusive: 18%.
With `CN1[C@@H](CCC(=O)N2CCc3ccccc32)CNC(=O)[C@@H]2[C@H]1CCN2Cc1ccc(O)cc1` the inhibition was inconclusive: 13%.
With `O=C(NC[C@H]1O[C@@H](CO)[C@@H](O)[C@H]1N1CCN(c2ccccn2)CC1)Nc1ccccc1` the inhibition was inconclusive: 13%.
With `O=C(O)c1cccc(NC(=O)c2cccc(C(=O)Nc3cccc(C(=O)O)c3)c2)c1` the inhibition was “inactive”.
`O=C1C=CC(=O)C(c2cc(C(F)(F)F)ccc2Cl)=C1` was tested, and the inhibition was inconclusive: 22%.
`CCOC(=O)N1CCN(C2CCCN(C(=O)CC3CCCC3)C2)CC1` (stereo not drawn) was tested, and the inhibition was “inactive”.
In the case of `CC(C)CN(CC(C)C)C(=O)C1CC2CCC1C2` (stereo not drawn), the inhibition is reported as “inactive”.
In the case of `COCCN1C(=O)CO[C@H]2CN(Cc3cccc(C#N)c3)C[C@H]21`, the inhibition is reported as inconclusive: 11%.
For `CN1CCN(C(=O)CC[C@@H]2CNC(=O)[C@@H]3C[C@H](NC(=O)c4cccs4)CN23)CC1`, the inhibition was inconclusive: 16%.
`Cc1cc(OCC(=O)Nc2ccc3c(c2)OCO3)cc(C)c1Br` was tested, and the inhibition was “inactive”.
For `COc1ccc(CN2CCN(C)C(C(=O)O)C2)cc1O` (stereo not drawn), the inhibition was “inactive”.
`COc1ccc(CN(C)Cc2nc(-c3ccccn3)no2)c2cccnc12` was tested, and the inhibition was inconclusive: 11%.
In the case of `CN1CCN(C(=O)C2CCC(=O)N2Cc2ccccc2Cl)CC1` (stereo not drawn), the inhibition is reported as inconclusive: 16%.
With `O=C(CSc1nnnn1-c1ccccc1)c1ccc2c(c1)OCO2` the inhibition was inconclusive: 14%.
With `COc1ccc(NS(=O)(=O)c2ccc(NS(=O)(=O)c3ccccc3[N+](=O)[O-])cc2)nn1` the inhibition was inconclusive: 10%.
In the case of `C=CCn1cc(C=C2C(=O)OC(c3ccccc3)OC2=O)c2ccccc21` (stereo not drawn), the inhibition is reported as inconclusive: 18%.
`CN(C)C(=O)c1ccc(-c2ccc(COCCN)cc2)cc1` was tested, and the inhibition was inconclusive: 21%.
In the case of `CCc1nnsc1C(=O)N1C[C@H]2CC=CC[C@H]2C1`, the inhibition is reported as “inactive”.
`O=C1CSC(c2ccccc2)N1c1ccc(Cl)cc1` (stereo not drawn) was tested, and the inhibition was “inactive”.
`O=C(Nc1c(-c2ccc(F)cc2)nc2ccccn12)c1cccc(F)c1` was tested, and the inhibition was “inactive”.
For `CCN(CC)S(=O)(=O)c1ccc(Cl)c(C(=O)NCc2ccco2)c1`, the inhibition was inconclusive: 27%.
For `COc1cc(Nc2ncnc3c2cnn3-c2cccc(C)c2)cc(OC)c1OC`, the inhibition was “inactive”.
With `CN1CC(n2cnnc2)c2sccc2S1(=O)=O` (stereo not drawn) the inhibition was “inactive”.
For `NS(=O)(=O)c1ccc(CCNC(=O)c2oc(=O)c3ccccc3c2-c2ccccc2)cc1`, the inhibition was inconclusive: 18%.
`Cc1ccc2c(c1)c1nc3ccccc3nc1n2C(C)C` was tested, and the inhibition was inconclusive: 27%.
With `COc1ccc(C2SCC(C(=O)O)N2C(C)=O)cc1` (stereo not drawn) the inhibition was “inactive”.
For `Cc1ccc(C(=O)N2CCN(S(=O)(=O)c3ccccc3)C2c2ccc(N(C)C)cc2)cc1` (stereo not drawn), the inhibition was “inactive”.
`CC(C)CCCC1CN(C(=O)c2cc(=O)[nH]c3ccc(F)cc23)CCO1` (stereo not drawn) was tested, and the inhibition was inconclusive: 10%.
For `O=C(Nc1c2c(nn1-c1ccc(Cl)cc1)CSC2)c1ccc(N2C(=O)CCC2=O)cc1`, the inhibition was inconclusive: 26%.
`OCC1(Cc2ccccc2F)CCCN(c2ccc3ccccc3n2)C1` (stereo not drawn) was tested, and the inhibition was inconclusive: 11%.
For `O=C1C(Nc2ccccc2)=CC(=NS(=O)(=O)c2cccs2)c2ccccc21`, the inhibition was active: 86%.
`Cc1ncsc1CCC(=O)NC1CC(=O)N(Cc2cccc(F)c2)C1` (stereo not drawn) was tested, and the inhibition was inconclusive: 10%.
For `Cc1noc(C)c1CNC(C)CCn1cccn1` (stereo not drawn), the inhibition was “inactive”.
`CC(NCC(=O)Nc1cnccn1)c1ccc(-n2cncn2)cc1` (stereo not drawn) was tested, and the inhibition was inconclusive: 18%.
In the case of `O=C(Cc1ccc(F)cc1)N1CCN=C1SCc1ccc(Cl)cc1`, the inhibition is reported as “inactive”.
For `Cc1[nH]cnc1-c1c(-c2ccccc2)ncn1C`, the inhibition was “inactive”.
With `CC(CCN1CCCC1CO)c1ccccc1` (stereo not drawn) the inhibition was “inactive”.
For `Cc1ccc(C(=O)N2CCC(CCCc3ccccc3)(C(=O)O)CC2)c(=O)[nH]1`, the inhibition was “inactive”.
In the case of `Cn1c2c(c(=O)n(C)c1=O)C(c1ccccc1F)C(C#N)=C(N)O2` (stereo not drawn), the inhibition is reported as inconclusive: 15%.
With `CC(CN1CCN(C)C2(CCN(C(=O)c3ccco3)CC2)C1)c1ccccc1` (stereo not drawn) the inhibition was active: 30%.
With `COc1ccc(N2CN=c3s/c(=C\c4ccc(I)o4)c(=O)n3C2)cc1` the inhibition was inconclusive: 25%.
For `O=C(c1ccccc1C1CCNC1)N1CCC(O)(Cc2ccccc2)CC1` (stereo not drawn), the inhibition was inconclusive: 17%.
For `Cc1ccc2ccccc2c1CN1CCC(N2CCCC2=O)CC1`, the inhibition was inconclusive: 17%.
With `O=C(Nc1cccc(Cl)c1Cl)c1cccc(Br)c1` the inhibition was “inactive”.
With `O=C(c1cc(C2CC2)[nH]n1)N1CCCCC1c1cccnc1` (stereo not drawn) the inhibition was “inactive”.
In the case of `COc1cc(-c2ccc(SC)cc2)cc(=O)c2c(C)oc(C)c12`, the inhibition is reported as inconclusive: 25%.
`CC1CCN(C(=O)CSc2ncnc3sc4c(c23)CCCC4)CC1` was tested, and the inhibition was “inactive”.
For `Cc1ccc(N2C(=O)CSC2c2ccccc2Cl)cc1` (stereo not drawn), the inhibition was active: 32%.
`COc1ccc(C2=[N+]([O-])C(C)(C)C(c3ccccc3)=N2)cc1` was tested, and the inhibition was inconclusive: 18%.
`CCC(=O)N1c2ccccc2NC2=C(C(=O)CCC2)C1c1ccc(Cl)cc1Cl` (stereo not drawn) was tested, and the inhibition was inconclusive: 15%.
In the case of `CCOC(=O)C(Cc1ccc(O)cc1)NC1=CC(=O)C(=O)c2ccccc21` (stereo not drawn), the inhibition is reported as “inactive”.
In the case of `CC(C)(C)c1ccc(C(=O)NCc2cccs2)cc1`, the inhibition is reported as inconclusive: 11%.
In the case of `Cn1nc(-c2ccc(Cl)cc2)c2cc(C(=O)N3CCN(c4ccccn4)CC3)sc21`, the inhibition is reported as “inactive”.
`Cc1ccc(C)c(OCC(=O)Nc2nc3ccccc3s2)c1` was tested, and the inhibition was “inactive”.
In the case of `COCC(C)NCc1ccccc1CN1CCCC1=O` (stereo not drawn), the inhibition is reported as inconclusive: 15%.
With `COc1ccc(C2CC3(C)CC(=O)C2C(C#N)(C#N)C3(C#N)C#N)cc1` (stereo not drawn) the inhibition was inconclusive: 27%.
With `CCS(=O)(=O)NC(C)C(c1cccs1)N1CCOCC1` (stereo not drawn) the inhibition was “inactive”.
In the case of `O=C(Nc1nc(-c2cc([N+](=O)[O-])cs2)cs1)c1ccccc1Oc1ccccc1`, the inhibition is reported as inconclusive: 16%.
With `CN(C)c1ccc(C2Nc3sc4c(c3C(=O)N2C)CCCC4)cc1` (stereo not drawn) the inhibition was inconclusive: 16%.
For `Cc1ccc(C)c(-c2[nH]ncc2CN(C)Cc2ncc[nH]2)c1`, the inhibition was inconclusive: 14%.
In the case of `COc1ccc(Cl)cc1NC(=O)C(=O)NCCO`, the inhibition is reported as “inactive”.
For `Clc1ccc(CN2CCC(N3CCCCCC3)CC2)cc1`, the inhibition was inconclusive: 13%.
With `Cc1ccc(S(=O)(=O)c2nc(-c3cccc(Cl)c3)oc2N2CCOCC2)cc1` the inhibition was inconclusive: 24%.
With `c1ccc(Cc2nc(NCc3ccco3)c3c4c(sc3n2)CCCC4)cc1` the inhibition was inconclusive: 12%.
With `CCN(CC)c1ccc(C=Nc2ccc(OC)cc2OC)c(O)c1` the inhibition was active: 35%.
`CC1=CCN(S(=O)(=O)c2ccccc2)S(=NS(=O)(=O)c2ccccc2)C1` (stereo not drawn) was tested, and the inhibition was inconclusive: 14%.
With `COc1cc(OC)c(-n2cc(-c3ccc(Br)cc3)[nH]c2=O)cc1Cl` the inhibition was inconclusive: 13%.
`O=c1c2sccc2n(Cc2cccc(F)c2)c(=O)n1-c1ccccc1` was tested, and the inhibition was “inactive”.
With `CCCCN(CC)CC(=O)N1CCCc2c1c(=O)oc1ccc(OCCC)cc21` the inhibition was inconclusive: 10%.
`COc1ccc(-n2cccn2)c(C2CC(=O)Nc3cc(O)c(C)cc32)c1` (stereo not drawn) was tested, and the inhibition was inconclusive: 17%.
In the case of `Cc1nn(C(=O)CCN2C(=O)c3ccccc3C2=O)c(C)c1Br`, the inhibition is reported as “inactive”.
For `CC(C)OCCCNC(=O)CSc1cc(=O)n(C)c2ccccc12`, the inhibition was inconclusive: 15%.
`COc1ccc(CCNc2nc(C)nc3sc4c(c23)CCCC4)cc1OC` was tested, and the inhibition was inconclusive: 16%.
`CCn1ncnc1-c1c(-c2ccccc2)ncn1CCc1ncccc1C` was tested, and the inhibition was inconclusive: 13%.
In the case of `O=C1N=C(N2CCN(CCO)CC2)S/C1=C\c1ccc(Br)cc1`, the inhibition is reported as “inactive”.
For `NC(=O)c1ccc(NC(=O)c2cccc(Br)c2)cc1`, the inhibition was inconclusive: 19%.
In the case of `O=C(CCCn1c(=O)[nH]c2ccsc2c1=O)NCc1ccco1`, the inhibition is reported as inconclusive: 12%.
`Cc1c(C)n(CC(O)CN2CCCCC2)c2ccccc12` (stereo not drawn) was tested, and the inhibition was inconclusive: 12%.
In the case of `O=C1NC(=Nc2ccccc2)S/C1=C/c1cc(Br)ccc1O`, the inhibition is reported as active: 36%.
In the case of `N#Cc1ccc(-c2cc(C(=O)O)c3c(ccc4ccccc43)n2)cc1`, the inhibition is reported as “inactive”.
`CCCCNC1CCS(=O)(=O)C1` (stereo not drawn) was tested, and the inhibition was inconclusive: 12%.
`Cc1c(N2C(=O)CSC23C(=O)Nc2ccccc23)c(=O)n(-c2ccccc2)n1C` (stereo not drawn) was tested, and the inhibition was inconclusive: 16%.
For `CN(Cc1cccc(C(F)(F)F)c1)Cc1nc(Cc2ccccc2F)no1`, the inhibition was inconclusive: 15%.
`C[C@H]1[C@@H]2[C@@H](O)C([C@H](C)C(=O)NCc3cc(F)cc(F)c3)CC[C@@]2(C)CC[C@@H]1NC(=O)c1cnccn1` (stereo partly drawn) was tested, and the inhibition was inconclusive: 22%.
For `COc1cc(-c2nc3ccccn3c2N=Cc2cccc([N+](=O)[O-])c2O)ccc1O`, the inhibition was inconclusive: 25%.
For `CCCS(=O)(=O)N1CCCC(C(=O)NCCC(C)C)C1` (stereo not drawn), the inhibition was inconclusive: 11%.
With `CC1=NN(c2cccc(Cl)c2)C(=O)/C1=C\C=C\c1ccccc1Cl` the inhibition was inconclusive: 14%.
In the case of `O=C1C(Nc2ccc(O)cc2)=CC(=NS(=O)(=O)c2cccs2)c2ccccc21`, the inhibition is reported as active: 88%.
`CCN=C1SC(CC(=O)Nc2ccccc2Cl)C(=O)N1CC` (stereo not drawn) was tested, and the inhibition was inconclusive: 19%.
`O=S1(=O)CCC(N2CCCCC2)C1` (stereo not drawn) was tested, and the inhibition was inconclusive: 12%.
In the case of `C=C1C(=O)OC2/C=C(\C)CC/C=C(\C)CC(OC(C)=O)C12` (stereo not drawn), the inhibition is reported as inconclusive: 25%.
For `Cc1ccc(N=Cc2c(C)[nH]c3ccccc23)cc1[N+](=O)[O-]`, the inhibition was inconclusive: 19%.
`COc1ccc(C(=O)CC(=O)c2ccccc2)cc1` was tested, and the inhibition was inconclusive: 11%.
`CCN(CC)c1ccc(CN2CCN(c3ccccc3OC)CC2)cc1` was tested, and the inhibition was inconclusive: 28%.
In the case of `COc1ccccc1/C=C1\N=C(c2ccccc2C)OC1=O`, the inhibition is reported as inconclusive: 20%.
With `Nc1ccc(-c2ccc(F)c(CO)c2)cn1` the inhibition was inconclusive: 19%.
For `CCOC(=O)C1(Cc2ccc(Cl)cc2)CCN(C2CCSC2)CC1` (stereo not drawn), the inhibition was “inactive”.
`OCCCc1nnc(SCc2ccccc2Cl)n1-c1ccccc1` was tested, and the inhibition was “inactive”.
